The list shows a part of the results, in another mix than the full data. For some assays here: At the low end of the ranking, values are background and their order means little. The list shows a part of the results. For some assays here: Construct or isoform of the protein are uncertain.

By UniProt entry, the sequences of proteins in these tests, tags left out. Where a name states a change or a piece, a line headed by the entry shows the natural chain unless it says otherwise.
UniProt P32519: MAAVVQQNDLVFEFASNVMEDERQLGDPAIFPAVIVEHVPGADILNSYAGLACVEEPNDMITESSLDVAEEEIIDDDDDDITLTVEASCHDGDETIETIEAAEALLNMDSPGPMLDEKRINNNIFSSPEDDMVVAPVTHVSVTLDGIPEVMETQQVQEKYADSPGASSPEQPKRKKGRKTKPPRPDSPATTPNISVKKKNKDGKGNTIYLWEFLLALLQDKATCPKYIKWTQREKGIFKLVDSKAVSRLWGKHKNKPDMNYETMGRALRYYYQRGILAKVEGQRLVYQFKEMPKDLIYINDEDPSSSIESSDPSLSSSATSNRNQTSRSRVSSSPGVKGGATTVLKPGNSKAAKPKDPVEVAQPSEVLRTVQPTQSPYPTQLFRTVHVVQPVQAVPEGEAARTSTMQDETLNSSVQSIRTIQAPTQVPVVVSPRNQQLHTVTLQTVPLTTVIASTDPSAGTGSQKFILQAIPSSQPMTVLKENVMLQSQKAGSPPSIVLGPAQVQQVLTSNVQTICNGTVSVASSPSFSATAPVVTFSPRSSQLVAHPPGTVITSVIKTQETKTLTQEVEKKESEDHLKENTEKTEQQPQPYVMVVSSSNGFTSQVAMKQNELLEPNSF
UniProt P50549: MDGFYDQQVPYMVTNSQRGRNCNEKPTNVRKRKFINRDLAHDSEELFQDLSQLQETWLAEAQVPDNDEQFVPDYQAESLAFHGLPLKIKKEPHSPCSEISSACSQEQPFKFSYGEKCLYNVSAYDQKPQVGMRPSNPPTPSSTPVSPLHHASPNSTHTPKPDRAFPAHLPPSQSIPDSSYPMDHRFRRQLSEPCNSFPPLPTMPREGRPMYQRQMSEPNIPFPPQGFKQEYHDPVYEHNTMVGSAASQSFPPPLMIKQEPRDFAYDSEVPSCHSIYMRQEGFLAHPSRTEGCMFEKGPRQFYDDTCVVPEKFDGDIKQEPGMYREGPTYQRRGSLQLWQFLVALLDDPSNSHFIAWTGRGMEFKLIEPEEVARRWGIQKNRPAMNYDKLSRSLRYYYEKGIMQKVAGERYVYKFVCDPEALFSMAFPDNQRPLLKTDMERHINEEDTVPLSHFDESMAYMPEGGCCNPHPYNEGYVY

Holding throughout (assay): DAPPL (digital affinity profiling via proximity ligation, sequencing)
What all share (conditions): 10 mM Tris-HCl pH 7.5, 50 mM NaCl, 1 mM DTT, 4% glycerol, room temperature, 30 min; GST-TFs on glutathione beads, 16-mer random dsDNA library, 0.1% …; high values mean tight binding; double strand, one strand shown; scale: fold enrichment (6-mer frequency, TF over GST control)

One assay deals with T1, ERG (UniProt P11308).
T1 sequence: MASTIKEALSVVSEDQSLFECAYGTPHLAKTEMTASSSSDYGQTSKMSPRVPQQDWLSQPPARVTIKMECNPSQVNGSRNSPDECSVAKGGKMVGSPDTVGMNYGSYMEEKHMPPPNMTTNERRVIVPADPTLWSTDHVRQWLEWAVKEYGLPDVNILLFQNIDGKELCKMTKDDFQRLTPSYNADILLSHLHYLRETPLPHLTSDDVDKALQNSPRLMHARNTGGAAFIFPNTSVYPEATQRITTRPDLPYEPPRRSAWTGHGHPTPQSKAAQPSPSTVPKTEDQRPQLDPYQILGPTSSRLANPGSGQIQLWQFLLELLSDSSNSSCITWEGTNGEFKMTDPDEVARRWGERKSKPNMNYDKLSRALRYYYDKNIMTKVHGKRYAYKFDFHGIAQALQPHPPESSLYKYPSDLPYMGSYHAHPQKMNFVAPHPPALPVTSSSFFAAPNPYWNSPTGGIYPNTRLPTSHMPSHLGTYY

The target in another assay is ELF1 (UniProt P32519).
In the next assay the target is T2, ELK4 (UniProt P28324-2).
T2 sequence: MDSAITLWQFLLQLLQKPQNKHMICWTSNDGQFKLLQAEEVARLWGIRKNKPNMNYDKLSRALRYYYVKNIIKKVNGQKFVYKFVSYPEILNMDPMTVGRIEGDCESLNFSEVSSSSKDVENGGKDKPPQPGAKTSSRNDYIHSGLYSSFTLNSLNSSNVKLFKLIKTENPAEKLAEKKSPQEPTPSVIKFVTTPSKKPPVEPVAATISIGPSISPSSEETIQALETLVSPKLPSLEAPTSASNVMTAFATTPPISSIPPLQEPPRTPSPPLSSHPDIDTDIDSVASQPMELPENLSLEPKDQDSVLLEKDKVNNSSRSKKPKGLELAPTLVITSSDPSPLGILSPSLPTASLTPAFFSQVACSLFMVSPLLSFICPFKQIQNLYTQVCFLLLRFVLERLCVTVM

The target of another assay is T3, ETV4 (UniProt P43268).
T3 sequence: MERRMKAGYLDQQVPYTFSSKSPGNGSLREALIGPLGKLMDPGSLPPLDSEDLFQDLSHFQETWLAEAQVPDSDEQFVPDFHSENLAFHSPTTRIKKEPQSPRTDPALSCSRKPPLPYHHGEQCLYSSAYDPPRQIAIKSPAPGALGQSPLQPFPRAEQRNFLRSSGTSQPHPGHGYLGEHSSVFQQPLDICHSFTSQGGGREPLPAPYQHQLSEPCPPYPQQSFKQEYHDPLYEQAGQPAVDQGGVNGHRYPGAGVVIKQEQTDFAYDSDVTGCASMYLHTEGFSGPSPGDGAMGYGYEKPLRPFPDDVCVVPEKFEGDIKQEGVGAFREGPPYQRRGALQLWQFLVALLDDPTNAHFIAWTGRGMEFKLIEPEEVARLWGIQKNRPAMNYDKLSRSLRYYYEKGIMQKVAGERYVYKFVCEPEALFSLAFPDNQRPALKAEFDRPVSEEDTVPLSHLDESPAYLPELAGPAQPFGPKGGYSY

The target of the next assay is ETV1 (UniProt P50549).
A further assay concerns the target T4, ERF (UniProt P50548).
T4 sequence: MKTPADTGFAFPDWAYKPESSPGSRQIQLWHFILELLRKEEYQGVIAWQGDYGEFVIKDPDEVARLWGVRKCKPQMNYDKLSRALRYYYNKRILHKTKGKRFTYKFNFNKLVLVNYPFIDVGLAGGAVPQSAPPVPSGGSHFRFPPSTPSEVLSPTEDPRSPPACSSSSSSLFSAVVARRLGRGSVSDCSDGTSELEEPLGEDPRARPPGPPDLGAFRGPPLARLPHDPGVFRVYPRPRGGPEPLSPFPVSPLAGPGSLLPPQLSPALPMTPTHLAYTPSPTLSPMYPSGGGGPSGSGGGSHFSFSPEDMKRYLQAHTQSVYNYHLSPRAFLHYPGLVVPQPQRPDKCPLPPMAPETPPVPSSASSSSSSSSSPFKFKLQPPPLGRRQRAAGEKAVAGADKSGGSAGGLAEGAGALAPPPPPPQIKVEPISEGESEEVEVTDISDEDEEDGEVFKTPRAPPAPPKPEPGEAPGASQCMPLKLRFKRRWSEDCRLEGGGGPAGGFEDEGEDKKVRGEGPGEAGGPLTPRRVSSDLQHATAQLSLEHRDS

Regarding GCAACA, the binding signal was 0.941 with ERG; 0.998 with ELF1; 1.08 with ELK4; 0.96 with ETV4; 0.903 in the assay with ETV1.
As for CCACCA, the binding signal worked out at 0.873 with ERG, 1.14 in the assay with ELK4, 1.07 with ETV4 and 0.991 with ERF.
On to CAGACT, for which the binding signal in the assay with ERG was found to be 0.985; in the assay with ELK4 it was 0.93; with ETV4, 1.05; in the assay with ERF, 0.94.
ACGGTT: the binding signal was determined as 0.987 with ERG, 0.981 in the assay with ELK4, 0.971 with ETV4 and 0.933 with ERF.
For the sequence CAAAGA, the binding signal with ERG amounted to 0.974; with ELK4, 0.973; in the assay with ETV4, 0.925; in the assay with ERF, 0.871.
With GTTGTA, the binding signal was 0.976 in the assay with ERG, 0.994 in the assay with ELK4, 1.09 in the assay with ETV4 and 0.87 with ERF.
Take CACGTT: the binding signal with ERG worked out at 1.28; with ELK4 it was 1.29; in the assay with ETV4 it was 1.26; with ERF, 1.36.
For the sequence ACCGTT, the binding signal with ERG worked out at 0.99; with ELF1, 0.965; with ELK4, 0.809; with ETV4, 0.944; with ETV1, 0.865.
In the same order, the values of GGCAAT are 0.908, 0.95, 0.887, 0.898 and 0.894.
On to TTAGCA, for which the binding signal in the assay with ERG is 1.3; in the assay with ELK4, 1.33; in the assay with ETV4, 1.23; in the assay with ERF, 1.29.
With ACTTAG, the binding signal with ERG came out at 1.09; in the assay with ELK4, 0.999; in the assay with ETV4, 1.11; with ERF, 1.17.
Turning to TCATAC, the binding signal was determined as 1.14 in the assay with ERG, 1.07 with ELK4, 1.09 with ETV4 and 1.2 with ERF.
Regarding AGAAAC, the binding signal with ERG was 0.924; in the assay with ELF1, 0.989; with ELK4 it was 0.967; in the assay with ETV4, 0.915; in the assay with ETV1, 0.981.
On to TGATTT, for which the binding signal with ERG was determined as 1.35; with ELK4, 1.2; in the assay with ETV4, 1.16; in the assay with ERF it was 1.17.
As to GCTAGA, the binding signal with ERG is 0.961; in the assay with ELF1 it was 1.01; with ELK4, 0.993; in the assay with ETV4, 0.963; in the assay with ETV1, 0.922.
Take TTTAGA: the binding signal with ERG is 0.901; in the assay with ELF1 it was 0.977; in the assay with ELK4, 0.995; with ETV4 it was 0.947; with ETV1 it was 0.947.
Consider TAAGCG, for which the binding signal in the assay with ERG came out at 1.02; with ELK4, 0.916; with ETV4, 0.95; in the assay with ERF, 0.991.
In the same order, the values of CTATGT are 0.989, 1.15, 1.17 and 1.08.
In the case of TAGCGC, the binding signal with ERG stood at 0.99; with ELF1 it was 0.99; with ELK4, 0.836; with ETV4, 1.04; with ETV1, 1.07.
For the sequence GGAATA, the binding signal with ERG stood at 0.954; with ELF1, 0.933; with ELK4, 0.879; in the assay with ETV4 it was 0.922; with ETV1, 0.908.
Regarding GTTCGT, the binding signal with ERG came to 0.936; with ELF1, 0.975; in the assay with ELK4, 0.865; with ETV4 it was 0.977; in the assay with ETV1, 0.896.
Take ATAGCG: the binding signal amounted to 0.947 with ERG; 0.906 in the assay with ELF1; 0.857 with ELK4; 0.925 in the assay with ETV4; 0.987 in the assay with ETV1.
As for TGCCGG, the binding signal amounted to 1.13 with ERG, 0.987 in the assay with ELK4, 1.08 with ETV4 and 0.973 with ERF.
In the same order, the values of ATGCGC are 1.18, 1.28, 1.08 and 1.24.
In the case of GCGAAC, the binding signal with ERG came out at 0.904; with ELF1, 0.91; in the assay with ELK4, 0.827; in the assay with ETV4 it was 0.887; with ETV1, 0.908.
Regarding CACGGC, the binding signal was 0.971 in the assay with ERG, 0.957 in the assay with ELK4, 1.02 with ETV4 and 0.968 with ERF.
For the sequence CTGCGG, the binding signal in the assay with ERG stood at 1.1; in the assay with ELK4, 0.959; in the assay with ETV4, 1.07; with ERF, 1.04.
Take ACTCGG: the binding signal with ERG was 0.98; in the assay with ELK4, 0.998; with ETV4 it was 1; with ERF, 1.04.
For the sequence GCTCAC, the binding signal with ERG is 1.51; with ELK4, 1.53; in the assay with ETV4, 1.61; with ERF, 1.58.
As to CCAAGA, the binding signal was 0.879 with ERG; 0.93 with ELF1; 0.886 with ELK4; 0.858 with ETV4; 0.888 with ETV1.
For GCGGCT, the binding signal stood at 0.862 with ERG; 1 with ELF1; 0.872 with ELK4; 0.957 with ETV4; 0.974 with ETV1.
On to AACGCG, for which the binding signal with ERG was 0.978; in the assay with ELK4, 0.963; in the assay with ETV4, 0.968; in the assay with ERF, 0.896.
Take AGTTAC: the binding signal with ERG turned out to be 1; in the assay with ELF1, 0.917; with ELK4 it was 0.942; in the assay with ETV4, 1.03; with ETV1 it was 0.982.
In the same order, the values of TATGAG are 0.958, 0.937, 0.96, 0.983 and 0.946.
Turning to ACGAAA, the binding signal with ERG stood at 1.14; in the assay with ELK4, 1.24; in the assay with ETV4, 1.13; with ERF, 1.34.
On to TGCGAA, for which the binding signal with ERG was 1.16; with ELK4, 1.19; in the assay with ETV4, 1.18; in the assay with ERF, 1.07.
Turning to AGAAAA, the binding signal with ERG was determined as 1.02; with ELK4, 0.969; with ETV4, 0.971; in the assay with ERF, 0.999.
Consider AGCATC, for which the binding signal in the assay with ERG was determined as 1.04; with ELK4, 0.963; with ETV4, 1.06; with ERF, 0.971.
As for ATTGAG, the binding signal was found to be 0.978 in the assay with ERG, 1 in the assay with ELF1, 0.969 with ELK4 and 1.02 in the assay with ETV4.
With TTCAAT, the binding signal stood at 1.41 with ERG, 1.37 in the assay with ELF1, 1.42 with ELK4 and 1.32 with ETV4.
In the case of TGTACA, the binding signal with ERG amounted to 1.24; with ELF1, 1.23; in the assay with ELK4, 1.17; with ETV4, 1.28.
Take CACAGC: the binding signal in the assay with ELK4 came out at 1.04; with ETV4 it was 0.984; with ETV1, 1.1.
As for CAGCTC, the binding signal is 0.997 with ERG, 1.06 in the assay with ELF1, 0.995 with ELK4 and 1.05 in the assay with ETV4.
Take TGCGAC: the binding signal is 1.26 with ERG; 1.22 in the assay with ELF1; 1.25 with ELK4; 1.18 with ETV4; 1.22 in the assay with ERF.
As to GGAAGA, the binding signal is 1.2 with ERG; 1.02 with ELF1; 0.894 with ELK4; 1.09 with ETV4; 1.03 in the assay with ERF.
In the same order, the values of TAGACA are 0.918, 0.991, 1.11, 0.987 and 0.994.
As to AGGTAA, the binding signal with ERG amounted to 0.92; in the assay with ELF1, 0.953; in the assay with ELK4 it was 0.992; with ETV4, 0.928; with ERF, 1.06.
Regarding AAGATG, the binding signal in the assay with ERG amounted to 1.11; in the assay with ELF1, 1.09; in the assay with ELK4, 1.22; in the assay with ETV4 it was 1.15.
Regarding ACCTGT, the binding signal with ERG stood at 0.988; with ELF1, 0.967; in the assay with ELK4, 0.971; with ETV4, 1.08; in the assay with ERF it was 1.08.
Turning to TTCAGG, the binding signal came out at 1.12 with ERG, 1.1 in the assay with ELF1, 1.19 in the assay with ELK4 and 1.14 in the assay with ETV4.
Turning to CTACCT, the binding signal came to 1.36 with ELK4, 1.33 with ETV4 and 1.54 with ETV1.
In the same order, the values of CCAAAC are 1.15, 1.06 and 1.02.
Regarding CGTTGG, the binding signal in the assay with ERG amounted to 0.859; in the assay with ELF1, 0.944; with ELK4, 0.9; with ETV4, 0.966.
In the same order, the values of AGATCT are 0.932, 1, 0.848 and 0.967.

Source of the values: publication PMC7862700.
